Assay results from publication PMC12172431.
Results are given in words; binding and its absence hold for the method and conditions named. In cells and extracts the contact can be indirect. These calls come from enrichment with a bait or labelling near it, and not all partners need be listed. For some of these results: Sequences can lack the tags named with a protein.

Experiments:
[1] = molecular target: T1, Flag-tagged Ac66 (AcMNPV) (UniProt P41467); test: affinity purification with mass spectrometry; Sf9 cells infected with vAcWT^Ac66Flag (MOI 5), collected at 48 h p.i.; IP with anti-Flag antibody, IgG as control; LC-MS/MS
T1 sequence: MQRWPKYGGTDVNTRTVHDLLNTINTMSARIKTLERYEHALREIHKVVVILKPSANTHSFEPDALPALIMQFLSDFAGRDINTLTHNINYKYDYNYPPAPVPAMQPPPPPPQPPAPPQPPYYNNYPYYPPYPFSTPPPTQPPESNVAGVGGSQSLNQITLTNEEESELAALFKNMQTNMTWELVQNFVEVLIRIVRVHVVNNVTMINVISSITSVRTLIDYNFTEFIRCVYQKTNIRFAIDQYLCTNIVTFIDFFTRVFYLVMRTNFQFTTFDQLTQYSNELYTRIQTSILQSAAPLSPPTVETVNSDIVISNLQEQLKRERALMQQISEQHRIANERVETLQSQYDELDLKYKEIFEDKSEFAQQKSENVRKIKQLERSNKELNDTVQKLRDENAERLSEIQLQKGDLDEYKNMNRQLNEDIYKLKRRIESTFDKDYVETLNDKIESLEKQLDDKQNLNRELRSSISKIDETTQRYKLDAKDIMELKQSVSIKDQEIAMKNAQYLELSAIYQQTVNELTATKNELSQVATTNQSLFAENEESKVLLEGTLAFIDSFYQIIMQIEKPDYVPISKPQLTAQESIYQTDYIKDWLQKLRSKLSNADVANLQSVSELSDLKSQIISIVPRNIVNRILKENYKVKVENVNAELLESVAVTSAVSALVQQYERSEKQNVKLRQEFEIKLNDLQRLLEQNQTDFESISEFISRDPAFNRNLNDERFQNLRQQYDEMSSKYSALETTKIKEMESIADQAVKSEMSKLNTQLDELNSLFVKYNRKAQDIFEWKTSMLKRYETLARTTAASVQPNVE

Ac51 (AcMNPV) = molecular target: T2, Ac51 (AcMNPV) (UniProt P41455); test: affinity purification with mass spectrometry; Sf9 cells infected with vAcWT (MOI 5), collected at 48 h p.i.; IP with anti-Ac51 antibody, IgG as control; LC-MS/MS
T2 sequence: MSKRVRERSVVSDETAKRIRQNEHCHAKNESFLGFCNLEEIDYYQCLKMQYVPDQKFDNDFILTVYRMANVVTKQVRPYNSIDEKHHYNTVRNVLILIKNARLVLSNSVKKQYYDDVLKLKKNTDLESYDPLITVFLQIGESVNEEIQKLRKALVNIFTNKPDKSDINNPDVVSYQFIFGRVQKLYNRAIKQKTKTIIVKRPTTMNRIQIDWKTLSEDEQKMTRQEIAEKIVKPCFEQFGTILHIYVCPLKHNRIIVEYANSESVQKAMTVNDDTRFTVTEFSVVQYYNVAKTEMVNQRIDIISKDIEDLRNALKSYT

B1: Ac132 (protein, UniProt P24730 1-219)
chain: MSDKTPTKKGGSHAMTLRERGVTKPPKKSEKLQQYKKAIAAEQTLRTTADVSSLQNPGESAVFQELERLENAVVVLENEQKRLYPILDTPLDNFIVAFVNPTYPMAYFVNTDYKLKLECARIRSDLLYKNKNEVAINRPKISSFKLQLNNVILDTIETIEYDLQNKVLTITAPVQDQELRKSIIYFNILNSDSWEVPKYMKKLFDEMQLEPPVILPLGL
Q: Which results are given for B1?
A: binding [1]: binds; binding (Ac51 (AcMNPV)): binds

B2: ME53 (protein, UniProt Q04719 1-449)
chain: MNRFFRENNIFDAPRTGGKGRAKSLPAPAANSPPSPVRPPPKSNIKPPTRISPPKQPMCTSPAKPLEHSSIVSKKPVVNRKDGYFVPPEFGNKFEGLPAYSDKLDFKQERDLRMHFMSDLERDIMKATLKFSTNYIMGYINSKDMRMTGKFASRPVKYKKTMEHMSDSRCTTCNYRFKDNTREWFLYVVVHIEKPLDDPDRIDICCQKCYLYHNVPKTSYEIYPSINLVDLSYLARERFFYQYIFPVSLEHTTEVKELRIDDHNCKVFEIIRRIIRNHKEPNERIQTIDLSTTGGLVLRETYTNIVLQRYRSMCTRPDVVDDVNCFILQEPSEMMAALQDNRFSGIKGTVFATVKVKKFTQVLDGAITFPLKPTTNNYCKLCKKTKLYYKNPVLYCTKCGFTNVYHFPEYSKFMYYFEAIKSFEMHNEMIIYYDLKMYKKLINIVNNNV
Q: B2 was tested. Which binding [1] did it give?
A: binds

Q: What about the binding (Ac51 (AcMNPV)) of the same binder?
A: binds

B3: Ac51 (protein, UniProt P41455 1-318)
chain: T2 sequence
Q: B3 was tested. Which binding [1] did it give?
A: binds

B4: Chitinase (enzyme, UniProt P41684 18-551)
chain: IPGTPVIDWADRNYALVEINYEATAYENLIKPKEQVDVQVSWNVWNGDIGDIAYVLFDEQQVWKGDAESKRATIKVLVSGQFNMRVKLCNEDGCSVSDPVLVKVADTDGGHLAPLEYTWLENNKPGRREDKIVAAYFVEWGVYGRNFPVDKVPLPNLSHLLYGFIPICGGDGINDALKTIPGSFESLQRSCKGREDFKVAIHDPWAAVQKPQKGVSAWNEPYKGNFGQLMAAKLANPHLKILPSIGGWTLSDPFYFMHDVEKRNVFVDSVKEFLQVWKFFDGVDIDWEFPGGKGANPSLGDADGDAKTYILLLEELRAMLDDLEAQTGRVYELTSAISAGYDKIAVVNYAEAQKSLGKIFLMSYDFKGAWSNTDLGYQTTVYAPSWNSEELYTTHYAVDALLKQGVDPNKIIVGVAMYGRGWTGVTNYTNDNYFSGTGNGPGSGTWEDGVVDYRQIQKDLNNYVYTFDSAAQASYVFDKSKGDLISFDSVDSVLGKVKYVDRNKLGGLFAWEIDADNGDLLNAINAQFKPKDEL
Q: Which binding [1] does the source give for B4 here?
A: binds

B5: AcOrf-74 peptide (protein, UniProt P41473 1-265)
chain: MKINLCNIQFQSLINLLNLQATTMSLLNSNKIKADLIPDEDDPKKITLRLNSVPEEHTDDNSSIDLPLTTPKQKDDFMNAIKSFETLNIEPDIVKTEQADAPATSGDNNRKVVDANVDEYTVDGLKLKSKYVAYYKCLKILVDFLVMYVSKEVSMKEYEQVYTLGRQLYEVLRSIFVDEPFKLWLERNTHEFDNNKDKILETLQSELKLALADKDKLKTCTFKDIITNLLNTKLDCKYDCADEYIKPNCIVDTYNCCNLVFKKET
Q: How did the binding [1] turn out when B5 was run?
A: binds

B6: vp39 (protein, UniProt P17499 1-347)
chain: MALVPVGMAPRQMRVNRCIFASIVSFDACITYKSPCSPDAYHDDGWFICNNHLIKRFKMSKMVLPIFDEDDNQFKMTIARHLVGNKERGIKRILIPSATNYQDVFNLNSMMQAEQLIFHLIYNNENAVNTICDNLKYTEGFTSNTQRVIHSVYATTKSILDTTNPNTFCSRVSRDELRFFDVTNARALRGGAGDQLFNNYSGFLQNLIRRAVAPEYLQIDTEELRFRNCATCIIDETGLVASVPDGPELYNPIRSSDIMRSQPNRLQIRNVLKFEGDTRELDRTLSGYEEYPTYVPLFLGYQIINSENNFLRNDFIPRANPNATLGGGAVAGPAPGVAGEAGGGIAV
Q: For B6, which binding [1] is on record?
A: binds

B7: Ac66 (protein, UniProt P41467 1-808)
chain: T1 sequence
Q: With B7 as the binder, how does the binding (Ac51 (AcMNPV)) read?
A: binds

B8: p47 (protein, UniProt P34051 1-401)
chain: MFVTRLEHTTQFLPQACKLEDEVLVLYAIYLNGFDYTLPRFVKREVQVNADGFVRFDYNIKMFDFARFTDMTQTTPEDIDDYINLTRINSLSDHDLKMLQLVCRDRWYKGDVARLRRILQQKDVDDLVKFVCNVMWERAYEDHYTLGQQLSIRITTKLIQSGLDFKHQPDTTAPVSVRGWEDATFEKYLQSITSISEVIKRHVFSKKYICLEVAASYWSDAVESLQQENFRIILNSKTPYVLLIEMDDDKNSMVYLRKLAHLLENKIVNLLFVTDVEFYFKNGNFMFYLYNSLKFYYYCLKNKFAFENVDKEIFFLLYTIVALEWFNGGHLNSFTLEKSALYNPLELSTRRLNSIKRAAQHNRVINCDSEINMDYIRGKRVRTGAHYGKRVVNFDLNQSLH
Q: Which binding (Ac51 (AcMNPV)) does the source give for B8 here?
A: binds
